The values that follow come from the supplement of paper PMC10849652.

The chains behind the UniProt entries cited, without tags or fusion partners. Where a name states a change or a piece, a line headed by the entry shows the natural chain unless it says otherwise.
UniProt Q8WU76: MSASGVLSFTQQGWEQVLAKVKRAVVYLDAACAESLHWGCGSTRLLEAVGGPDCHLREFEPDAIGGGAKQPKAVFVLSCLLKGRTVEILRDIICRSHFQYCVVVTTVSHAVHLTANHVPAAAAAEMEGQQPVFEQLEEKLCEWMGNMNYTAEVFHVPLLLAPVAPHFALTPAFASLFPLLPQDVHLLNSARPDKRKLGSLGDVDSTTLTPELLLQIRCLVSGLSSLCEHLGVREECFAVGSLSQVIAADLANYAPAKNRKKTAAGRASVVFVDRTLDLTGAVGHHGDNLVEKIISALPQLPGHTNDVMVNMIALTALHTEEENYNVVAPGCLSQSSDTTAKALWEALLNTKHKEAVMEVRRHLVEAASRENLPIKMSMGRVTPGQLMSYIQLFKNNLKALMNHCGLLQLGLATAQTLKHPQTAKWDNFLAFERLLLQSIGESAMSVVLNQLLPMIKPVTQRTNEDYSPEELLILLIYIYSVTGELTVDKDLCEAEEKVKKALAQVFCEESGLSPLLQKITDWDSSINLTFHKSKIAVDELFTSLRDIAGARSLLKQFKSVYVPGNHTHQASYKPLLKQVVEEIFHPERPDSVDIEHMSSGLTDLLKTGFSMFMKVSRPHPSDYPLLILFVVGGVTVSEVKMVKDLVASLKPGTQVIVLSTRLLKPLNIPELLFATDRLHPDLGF
UniProt Q8WTV0: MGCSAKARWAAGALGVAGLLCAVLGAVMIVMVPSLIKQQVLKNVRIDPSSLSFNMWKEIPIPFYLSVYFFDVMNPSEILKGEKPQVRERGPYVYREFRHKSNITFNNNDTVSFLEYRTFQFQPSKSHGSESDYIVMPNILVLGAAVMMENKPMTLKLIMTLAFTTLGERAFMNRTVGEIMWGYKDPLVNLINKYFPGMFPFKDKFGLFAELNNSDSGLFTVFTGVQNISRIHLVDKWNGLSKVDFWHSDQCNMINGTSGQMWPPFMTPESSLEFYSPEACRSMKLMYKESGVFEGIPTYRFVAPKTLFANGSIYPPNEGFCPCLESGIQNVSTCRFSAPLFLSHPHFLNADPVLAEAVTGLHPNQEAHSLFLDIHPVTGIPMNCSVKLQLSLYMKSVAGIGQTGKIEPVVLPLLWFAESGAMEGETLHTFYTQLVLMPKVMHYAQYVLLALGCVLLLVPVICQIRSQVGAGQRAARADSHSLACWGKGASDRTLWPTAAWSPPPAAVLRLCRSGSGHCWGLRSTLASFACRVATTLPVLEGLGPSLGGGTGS
UniProt Q9H446: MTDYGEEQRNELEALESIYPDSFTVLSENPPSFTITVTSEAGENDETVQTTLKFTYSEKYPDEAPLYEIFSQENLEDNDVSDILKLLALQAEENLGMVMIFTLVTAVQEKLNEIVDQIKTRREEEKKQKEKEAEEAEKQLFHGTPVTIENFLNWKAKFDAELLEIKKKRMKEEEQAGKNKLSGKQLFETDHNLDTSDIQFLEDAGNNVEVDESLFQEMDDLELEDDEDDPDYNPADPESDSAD
UniProt Q9Y6U3: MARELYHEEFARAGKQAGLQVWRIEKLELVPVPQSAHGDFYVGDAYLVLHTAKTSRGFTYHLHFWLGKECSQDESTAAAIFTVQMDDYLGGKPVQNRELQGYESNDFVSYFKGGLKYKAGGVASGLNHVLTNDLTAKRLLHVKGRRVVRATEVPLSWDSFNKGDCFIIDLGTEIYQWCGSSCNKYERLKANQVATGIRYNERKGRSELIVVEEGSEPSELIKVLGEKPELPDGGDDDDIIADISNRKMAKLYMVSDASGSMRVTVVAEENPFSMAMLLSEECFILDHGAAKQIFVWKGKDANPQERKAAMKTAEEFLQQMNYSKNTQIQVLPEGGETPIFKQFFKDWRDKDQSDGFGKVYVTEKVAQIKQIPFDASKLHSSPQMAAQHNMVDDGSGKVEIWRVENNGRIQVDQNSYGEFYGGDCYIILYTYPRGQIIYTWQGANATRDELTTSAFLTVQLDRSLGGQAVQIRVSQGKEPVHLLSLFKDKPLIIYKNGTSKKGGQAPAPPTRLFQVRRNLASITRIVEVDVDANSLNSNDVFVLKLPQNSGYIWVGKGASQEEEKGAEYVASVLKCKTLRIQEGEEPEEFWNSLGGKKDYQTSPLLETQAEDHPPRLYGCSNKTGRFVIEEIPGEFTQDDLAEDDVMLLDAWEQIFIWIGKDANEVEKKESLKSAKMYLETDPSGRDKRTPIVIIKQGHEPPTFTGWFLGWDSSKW
UniProt Q8N488: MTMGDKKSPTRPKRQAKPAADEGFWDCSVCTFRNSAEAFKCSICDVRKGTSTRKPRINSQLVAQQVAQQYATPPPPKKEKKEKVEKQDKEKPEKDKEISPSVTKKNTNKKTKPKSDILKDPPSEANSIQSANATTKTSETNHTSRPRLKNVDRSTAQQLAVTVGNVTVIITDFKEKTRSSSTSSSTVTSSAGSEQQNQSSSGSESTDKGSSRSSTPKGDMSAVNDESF
UniProt Q9Y224: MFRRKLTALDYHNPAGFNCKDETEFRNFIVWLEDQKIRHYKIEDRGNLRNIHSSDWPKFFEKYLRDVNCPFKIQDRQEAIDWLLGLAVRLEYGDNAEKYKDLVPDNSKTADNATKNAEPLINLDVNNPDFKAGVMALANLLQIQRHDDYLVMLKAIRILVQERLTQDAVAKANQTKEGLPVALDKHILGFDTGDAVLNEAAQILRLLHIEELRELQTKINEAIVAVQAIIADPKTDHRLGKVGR
UniProt Q96KG9: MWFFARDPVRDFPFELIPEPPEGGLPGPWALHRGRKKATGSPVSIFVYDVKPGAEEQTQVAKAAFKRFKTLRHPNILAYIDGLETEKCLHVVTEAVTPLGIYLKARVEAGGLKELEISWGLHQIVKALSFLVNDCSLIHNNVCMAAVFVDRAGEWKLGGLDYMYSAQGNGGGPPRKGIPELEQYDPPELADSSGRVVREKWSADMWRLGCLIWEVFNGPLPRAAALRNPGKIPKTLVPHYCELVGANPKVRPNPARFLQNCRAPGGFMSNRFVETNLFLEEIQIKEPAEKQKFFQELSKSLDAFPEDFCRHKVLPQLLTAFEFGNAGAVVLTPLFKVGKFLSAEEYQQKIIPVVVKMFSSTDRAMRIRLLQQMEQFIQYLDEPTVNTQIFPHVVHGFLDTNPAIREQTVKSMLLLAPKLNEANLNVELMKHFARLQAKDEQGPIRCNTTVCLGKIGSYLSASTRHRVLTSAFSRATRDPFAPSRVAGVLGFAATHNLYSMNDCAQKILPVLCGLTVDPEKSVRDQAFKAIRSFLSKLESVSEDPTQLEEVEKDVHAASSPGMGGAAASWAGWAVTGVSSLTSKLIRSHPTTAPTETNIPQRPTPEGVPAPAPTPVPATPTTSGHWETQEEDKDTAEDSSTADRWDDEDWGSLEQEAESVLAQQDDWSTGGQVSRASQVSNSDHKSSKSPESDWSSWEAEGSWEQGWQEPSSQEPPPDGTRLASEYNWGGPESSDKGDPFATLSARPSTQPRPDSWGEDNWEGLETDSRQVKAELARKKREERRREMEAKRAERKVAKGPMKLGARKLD
UniProt P31040: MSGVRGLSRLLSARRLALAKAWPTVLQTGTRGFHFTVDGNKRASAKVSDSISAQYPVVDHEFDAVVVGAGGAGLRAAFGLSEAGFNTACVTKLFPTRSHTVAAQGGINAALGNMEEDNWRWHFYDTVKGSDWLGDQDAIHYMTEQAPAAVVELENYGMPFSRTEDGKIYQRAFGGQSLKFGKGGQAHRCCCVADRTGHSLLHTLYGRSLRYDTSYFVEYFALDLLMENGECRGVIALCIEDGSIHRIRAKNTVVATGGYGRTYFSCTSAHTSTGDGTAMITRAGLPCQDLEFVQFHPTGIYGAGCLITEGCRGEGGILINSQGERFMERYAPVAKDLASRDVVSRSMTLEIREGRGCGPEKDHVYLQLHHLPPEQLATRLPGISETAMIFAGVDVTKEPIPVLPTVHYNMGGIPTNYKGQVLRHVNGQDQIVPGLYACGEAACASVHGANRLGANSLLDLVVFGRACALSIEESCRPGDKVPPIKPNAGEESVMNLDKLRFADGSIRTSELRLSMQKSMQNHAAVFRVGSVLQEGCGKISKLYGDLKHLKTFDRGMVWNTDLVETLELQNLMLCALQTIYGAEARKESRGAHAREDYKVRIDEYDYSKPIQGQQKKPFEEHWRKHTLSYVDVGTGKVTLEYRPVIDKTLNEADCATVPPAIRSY
UniProt Q9Y265, whole entry, looked up: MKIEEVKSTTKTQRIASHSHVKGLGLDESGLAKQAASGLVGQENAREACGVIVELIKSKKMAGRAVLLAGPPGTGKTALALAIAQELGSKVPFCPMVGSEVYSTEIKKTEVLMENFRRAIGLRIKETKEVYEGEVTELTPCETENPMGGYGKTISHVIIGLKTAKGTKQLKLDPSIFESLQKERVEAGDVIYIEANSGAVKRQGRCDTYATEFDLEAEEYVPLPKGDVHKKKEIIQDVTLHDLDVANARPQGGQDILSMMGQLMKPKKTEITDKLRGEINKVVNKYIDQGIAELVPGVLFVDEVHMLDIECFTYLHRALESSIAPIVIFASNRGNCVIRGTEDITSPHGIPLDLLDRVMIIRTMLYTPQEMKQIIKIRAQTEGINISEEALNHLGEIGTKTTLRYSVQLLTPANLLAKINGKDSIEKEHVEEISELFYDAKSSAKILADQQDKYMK
UniProt Q9NRP4: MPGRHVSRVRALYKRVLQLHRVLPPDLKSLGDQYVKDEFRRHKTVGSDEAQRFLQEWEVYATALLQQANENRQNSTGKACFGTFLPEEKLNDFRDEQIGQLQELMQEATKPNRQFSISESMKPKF
UniProt Q96I15: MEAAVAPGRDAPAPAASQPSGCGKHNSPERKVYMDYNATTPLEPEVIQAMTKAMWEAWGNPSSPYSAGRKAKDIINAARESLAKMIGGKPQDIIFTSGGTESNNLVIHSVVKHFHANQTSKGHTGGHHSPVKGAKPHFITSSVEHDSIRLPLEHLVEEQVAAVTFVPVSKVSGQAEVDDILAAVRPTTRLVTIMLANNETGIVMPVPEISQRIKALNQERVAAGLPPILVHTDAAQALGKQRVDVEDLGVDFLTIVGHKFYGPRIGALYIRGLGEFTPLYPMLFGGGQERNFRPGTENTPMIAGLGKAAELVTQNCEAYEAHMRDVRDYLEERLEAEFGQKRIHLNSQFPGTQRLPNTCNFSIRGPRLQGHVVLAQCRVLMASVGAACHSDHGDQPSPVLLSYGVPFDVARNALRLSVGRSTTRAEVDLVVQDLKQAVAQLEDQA
UniProt P25815: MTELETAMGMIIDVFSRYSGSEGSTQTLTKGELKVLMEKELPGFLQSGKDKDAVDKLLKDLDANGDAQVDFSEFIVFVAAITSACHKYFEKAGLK
UniProt P22307: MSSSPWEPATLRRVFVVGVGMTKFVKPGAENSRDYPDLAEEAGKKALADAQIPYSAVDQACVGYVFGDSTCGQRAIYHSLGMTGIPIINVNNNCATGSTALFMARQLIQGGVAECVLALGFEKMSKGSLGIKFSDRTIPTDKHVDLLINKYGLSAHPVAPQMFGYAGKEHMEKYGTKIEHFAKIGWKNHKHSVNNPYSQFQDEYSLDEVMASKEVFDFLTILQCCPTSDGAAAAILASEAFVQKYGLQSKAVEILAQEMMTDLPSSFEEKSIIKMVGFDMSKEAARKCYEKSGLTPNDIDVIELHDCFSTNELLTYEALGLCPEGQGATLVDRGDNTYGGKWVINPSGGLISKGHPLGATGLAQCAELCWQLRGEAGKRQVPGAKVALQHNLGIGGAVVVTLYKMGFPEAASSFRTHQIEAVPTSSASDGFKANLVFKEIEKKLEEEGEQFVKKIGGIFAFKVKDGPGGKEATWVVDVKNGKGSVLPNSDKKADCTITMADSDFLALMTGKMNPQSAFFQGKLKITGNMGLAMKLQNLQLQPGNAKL
UniProt Q969E2: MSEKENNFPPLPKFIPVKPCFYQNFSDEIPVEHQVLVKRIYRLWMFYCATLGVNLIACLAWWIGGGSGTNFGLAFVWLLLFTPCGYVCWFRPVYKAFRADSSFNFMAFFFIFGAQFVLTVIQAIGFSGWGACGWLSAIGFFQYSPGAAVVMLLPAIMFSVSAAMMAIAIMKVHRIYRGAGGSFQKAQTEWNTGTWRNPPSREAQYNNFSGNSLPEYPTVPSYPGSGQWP
UniProt Q14108: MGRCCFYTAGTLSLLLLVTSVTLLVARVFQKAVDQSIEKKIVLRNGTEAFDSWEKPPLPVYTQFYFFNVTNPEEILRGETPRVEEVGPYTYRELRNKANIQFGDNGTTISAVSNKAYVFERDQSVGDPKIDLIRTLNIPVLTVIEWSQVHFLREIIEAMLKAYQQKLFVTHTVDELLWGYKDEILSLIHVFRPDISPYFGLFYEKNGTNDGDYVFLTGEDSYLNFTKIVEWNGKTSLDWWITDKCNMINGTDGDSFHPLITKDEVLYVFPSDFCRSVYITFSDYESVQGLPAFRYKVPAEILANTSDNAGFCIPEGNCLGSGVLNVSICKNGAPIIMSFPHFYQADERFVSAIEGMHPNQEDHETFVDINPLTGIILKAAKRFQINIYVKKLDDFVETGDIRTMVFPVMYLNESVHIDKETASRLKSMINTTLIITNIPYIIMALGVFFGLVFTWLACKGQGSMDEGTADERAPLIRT

This is one part of the list.

Compound in this experiment: C[C@H](C1=CC=C(C=C1)C(=O)NC2=C3C=CNC3=NC=C2)N
The experiment in a line: log2 fold change, soluble protein after heating vs DMSO (PISA); higher = thermal stabilisation; K562 cells, 10 uM, 30 min; active = over 0.2 and 3.5 SD of the protein, either way, in both replicates (recomputed). In a few lines:
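Quantification of soluble protein used TMTpro 16plex LC-MS/MS, with channel sums equalised. Samples were the supernatant after 21,000xg for 90 min of pooled aliquots from K562 cells (2×10^6 cells/mL) treated with 10 μM compound for 30 min, heated for 3 min over 48°C-58°C, and extracted in PBS with 0.5% NP-40 at 4°C. Values, from duplicates, describe thermal stability against control samples on a log2 fold-change scale.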
As for SCFD2 (UniProt Q8WU76), the log2 fold change was inactive: 0.121.
Consider SCARB1 isoform 2 (UniProt Q8WTV0), for which the log2 fold change is inactive: -0.085.
In the case of RWDD1 (UniProt Q9H446), the log2 fold change was inactive: -0.072.
Take SCIN (UniProt Q9Y6U3): the log2 fold change is inactive: 0.025.
As for SDF4 (UniProt Q9BRK5), the log2 fold change is inactive: -0.031.
On to RYBP (UniProt Q8N488), for which the log2 fold change was inactive: -0.019.
Regarding SCO1 (UniProt O75880), the log2 fold change was inactive: -0.052.
Take SACS (UniProt Q9NZJ4): the log2 fold change is inactive: -0.115.
Take RTRAF (UniProt Q9Y224): the log2 fold change is inactive: 0.179.
As to SCYL1 (UniProt Q96KG9), the log2 fold change is inactive: -0.016.
With S100A6 (UniProt P06703), the log2 fold change was inactive: -0.016.
With SDHA (UniProt P31040), the log2 fold change was inactive: -0.077.
The result for RSBN1L (UniProt Q6PCB5) reads inactive: 0.265.
Regarding RUVBL1 (UniProt Q9Y265), the log2 fold change was inactive: -0.016.
In the case of SDHAF3 (UniProt Q9NRP4), the log2 fold change was inactive: -0.085.
As for SBNO1 (UniProt A3KN83), the figure is inactive: -0.038; as for SCLY (UniProt Q96I15), inactive: -0.092; as for S100P (UniProt P25815), inactive: -0.136.
For SCP2 (UniProt P22307), the log2 fold change was inactive: -0.028.
On to SCAMP4 (UniProt Q969E2), for which the log2 fold change was inactive: -0.03.
As for SCARB2 (UniProt Q14108), the log2 fold change was inactive: -0.091.
Turning to SCAP (UniProt Q12770), the log2 fold change is inactive: -0.032.
With SEC24D isoform 2 (UniProt O94855), the log2 fold change was inactive: -0.009.
